This note sets out measurements from US20220144812A1, “QUINOLINE DERIVATIVES AND THEIR USE FOR THE TREATMENT OF CANCER” (Epizyme, Inc., priority 2019, published 2022).

The chains behind the UniProt entries cited, without tags or fusion partners. Residues count along the entry.
UniProt Q92793, 1084-1701 limits assumed: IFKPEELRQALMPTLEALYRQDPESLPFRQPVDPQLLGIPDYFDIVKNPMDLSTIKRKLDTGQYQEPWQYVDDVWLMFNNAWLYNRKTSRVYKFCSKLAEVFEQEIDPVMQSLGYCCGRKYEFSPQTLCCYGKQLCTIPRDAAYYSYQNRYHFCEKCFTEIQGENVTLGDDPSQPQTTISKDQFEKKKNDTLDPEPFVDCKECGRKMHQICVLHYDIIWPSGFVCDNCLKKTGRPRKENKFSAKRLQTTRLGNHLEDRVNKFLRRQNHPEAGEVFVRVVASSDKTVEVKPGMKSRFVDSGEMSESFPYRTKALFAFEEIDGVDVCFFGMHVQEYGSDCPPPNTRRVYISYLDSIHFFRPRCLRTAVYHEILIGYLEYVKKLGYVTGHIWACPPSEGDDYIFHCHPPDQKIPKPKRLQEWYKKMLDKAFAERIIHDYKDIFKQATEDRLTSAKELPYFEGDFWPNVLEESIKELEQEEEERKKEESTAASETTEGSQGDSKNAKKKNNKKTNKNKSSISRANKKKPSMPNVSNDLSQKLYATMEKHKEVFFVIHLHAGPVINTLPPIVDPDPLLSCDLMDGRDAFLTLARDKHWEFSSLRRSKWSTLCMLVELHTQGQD
UniProt Q09472, 1048-1664 limits assumed: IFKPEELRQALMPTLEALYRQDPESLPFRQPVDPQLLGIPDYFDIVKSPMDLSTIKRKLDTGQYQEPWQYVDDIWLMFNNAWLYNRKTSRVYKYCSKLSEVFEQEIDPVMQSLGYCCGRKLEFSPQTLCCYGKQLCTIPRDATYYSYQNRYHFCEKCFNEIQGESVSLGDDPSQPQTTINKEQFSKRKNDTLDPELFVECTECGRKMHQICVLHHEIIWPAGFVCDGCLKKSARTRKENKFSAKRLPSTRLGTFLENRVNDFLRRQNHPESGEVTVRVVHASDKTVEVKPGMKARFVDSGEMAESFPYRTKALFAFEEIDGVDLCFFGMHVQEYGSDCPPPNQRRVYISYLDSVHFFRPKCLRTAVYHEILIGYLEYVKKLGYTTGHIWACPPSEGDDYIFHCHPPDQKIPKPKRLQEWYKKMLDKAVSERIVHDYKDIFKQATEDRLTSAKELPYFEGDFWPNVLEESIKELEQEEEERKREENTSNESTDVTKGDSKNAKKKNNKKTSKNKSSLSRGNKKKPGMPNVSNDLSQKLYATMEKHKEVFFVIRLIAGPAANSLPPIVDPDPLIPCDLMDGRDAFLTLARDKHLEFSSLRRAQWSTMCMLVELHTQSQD

Assay [1] deals with H3K18Ac in HB-CLS-2 cells. As to the kind of experiment: H3K18AC in-cell western (ICW) assay. The text has this:
The following example describes methods and materials relating to an H3K18AC in-cell western assay. IC50 values (micromolar (μM)) are summarized in Table 1, Table 2, and Table 3 under the column labeled: “CREBBP ICW IC50 (micromolar).”
MATERIALS: HB-CLS-2 cell line, DMEM: Ham's F12 medium (1:1 mixture), penicillin-streptomycin, heat inactivated fetal bovine serum, D-PBS, Odyssey blocking buffer, 800CW goat anti-rabbit IgG (H+L) antibody, Licor Odyssey CLx Infrared Scanner, H3K18Ac rabbit monoclonal antibody. DRAQS fluorescent probe solution (5 mM), and 100% methanol were commercially available. HB-CLS-2 adherent cells were maintained in complete growth medium (DMEM: Ham's F12 supplemented with 10% v/v heat inactivated fetal bovine serum) and cultured at 37° C. under 5% CO2.
METHOD: Cell Treatment, ICW for detection of H3K18Ac and DNA content. HB-CLS-2 cells were seeded in assay medium (DMEM: Ham's F12 supplemented with 10% v/v heat inactivated fetal bovine serum and 1% Penicillin/Streptomycin) at a concentration of 80,000 cells per mL in a Poly-D-Lysine coated 384-well culture plates at 50 μL per well. Plates were incubated at room temperature for 30 minutes and then incubated at 37° C., 5% CO2 for additional 16-24 hours. Compounds and DMSO normalization were then added directly to the plates using a D300 Digital Dispenser and returned to the incubator at 37° C., 5% CO2 for 2 hrs. After the incubation, the contents of the plates were discarded into the appropriate waste stream and blotted on laboratory tissue to remove residual liquid. 90 μL per well of 100% ice cold methanol was added to the plates and incubated at room temperature for 15 minutes. Then methanol was then discarded into the appropriate waste stream and the plates again blotted on laboratory tissue to remove residual liquid. Plates were transferred to a Biotek 405 plate washer and washed 3 times with 100 μL per well of wash buffer (1X PBS containing 0.1% Triton X-100 (v/v)). Next, 50 μL per well of Odyssey blocking buffer with 0.1% Tween 20 (v/v) was added to each plate and incubated for 1 hour at room temperature. Blocking buffer was removed and 20 μL of primary antibody were added (α-H3K18Ac diluted 1:800 in Odyssey buffer with 0.1% Tween 20 (v/v)) and plates were incubated overnight (16 hours) at 4° C. Plates were washed 5 times with 100 μL per well of wash buffer. Next 20 μL per well of secondary antibody was added (1:400 800CW goat anti-rabbit IgG (H+L) antibody, 1:2000 DRAQ5 in Odyssey buffer with 0.1% Tween 20 (v/v)) and incubated for 1 hour at room temperature. The plates were washed 3 times with 100 μL per well wash buffer then 3 times with 100 μL per well of water. Plates were allowed to dry at room temperature then imaged on the Licor Odyssey CLx machine which measured integrated intensity at 700 nm and 800 nm wavelengths. Both 700 and 800 channels were scanned.

The target in the next assay is CREBBP (1084-1701) (Homo sapiens, UniProt Q92793). As to the kind of experiment: Biochemical assay for CREBBP (1084-1701), SAMDI. An excerpt:
The following example describes materials and methods relating to a biochemical assay for CREBBP (1084-1701). IC50 values (micromolar (μM)) are summarized in Table 1, Table 2, and Table 3 under the column labeled: “CREBBP Biochemistry IC50 (micromolar).”
MATERIALS: Reagents 1M Tris pH 8.0, Tween 20 10%, DTT, bovine serum gelatin (BSG) 2%, Peptide #233 (biotin-H3 11-25, K14R, K23R), Acetyl-CoA, CREBBP (1084-1701), formic acid (100%), and sodium bicarbonate were commercially available.
METHODS: The effect of compounds was measured in the following biochemical assay using CREBBP (1084-1701). Enzyme mix 30 μL per well was added using a Multi-drop to wells of prepared Compound Stock plate. The enzyme was incubated in the Compound Stock plate for 30 minutes at room temperature. Substrate mix, 20 μL per well, was added to Compound Stock plate using a Multi-drop. The plate was covered and incubate 30 minutes at room temperature. The reaction was stopped with addition of 5 μL per well of 5% formic acid using a Multi-drop. The plate was Incubated for 30 minutes at room temperature. The reaction mixture was neutralized with addition of 5 μL per well of 10% sodium bicarbonate using a Multi-drop. The plate was Incubated for 35 minutes at room temperature. The reaction mixture was Transferred 2.5 μL per well to a SAMDI biochip. The plate was Incubated for 60 minutes at room temperature. The samples were washed, dried, and matrix applied to SAMDI biochip. The SAMDI biochip was then read on the mass spectrometer.

A further assay concerns 647V cells. In words: High throughput proliferation (HTP) assay. The settings on record: read-out: CREBBP HTP IC50 (micromolar). An excerpt: The following example describes methods and materials relating to a high throughput proliferation (HTP) assay. IC50 values (micromolar) are summarized in Table 1, Table 2, and Table 3 under the column labeled: “CREBBP HTP IC50 (micromolar).”
MATERIALS: 647V cell line, Dulbecco's MEM, penicillin-streptomycin, heat inactivated fetal bovine serum, D-PBS, and CellTiter-Glo were commercially available.
647V adherent cells were maintained in complete growth medium (Dulbecco's MEM supplemented with 15% v/v heat inactivated fetal bovine serum) and cultured at 37° C. under 5% CO2.
METHOD: Measurement of the effect of compound in High Throughput Proliferation (HTP) assays was performed as follows: Exponentially growing 647V cells were plated, in triplicate, in 384-well plates at the appropriate cell density in a final volume of 50 μl. Cells were incubated in the presence of increasing concentrations of compound. Viable cell number was determined at day 7 by addition of 35 μl CellTiter-Glo to each well of the plate, incubated in the dark for 30 minutes, and read on a PerkinElmer EnVision instrument to enumerate the number of cells.

The next assay addresses EP300 (P300(1048-1664)) (Homo sapiens, UniProt Q09472). In words: Biochemical assay for EP300, SAMDI. The settings on record: read-out: EP300 Biochemistry IC50 (micromolar). An excerpt: The following example describes materials and methods relating to a biochemical assay for EP300. IC50 values (micromolar (μM)) are summarized in Table 1, Table 2, and Table 3 under the column labeled: “EP300 Biochemistry IC50 (micromolar).”

Setting [2] is: read-out: CREBBP ICW IC50 (micromolar).
The mark [3] stands for this setting: read-out: CREBBP Biochemistry IC50 (micromolar).

SMILES strings stand for the structures. pIC50: −log10 of the molar value. Like-named read-outs stand apart in the source and are kept apart here. The structures given here were assigned with low confidence; some may be wrong.

For `CCn1ncc(CN(C)C(=O)c2cc(-c3ccc(NC4CCOCC4)c(C)n3)nc3ccc(Cl)cc23)c1C`, the pIC50 was 6.78 in assay [1] (setting [2]), 7.56 on CREBBP (1084-1701) (setting [3]), 6.90 with 647V cells and 8.01 on EP300 (P300(1048-1664)).
In the same order, the values of `CNCCNc1ccc(-c2cc(C(=O)N(C)Cc3cnc(C)n3C)c3cc(Cl)ccc3n2)nc1C` are 6.52, 7.16, 6.68 and 7.14.
For the compound `CCn1ncc(CN(C)C(=O)c2nc(-c3cccc(Cl)c3)nc3ccc(Cl)cc23)c1C` [Compound 71], the negative-log IC50 (pIC50) is 6.15 in assay [1] (read-out: CREBBP ICW IC50, HB-CLS-2 cells) and 8.25 on CREBBP (1084-1701) (read-out: CREBBP Biochemistry IC50).
For the compound `CNCCNc1ccc(-c2cc(C(=O)N(C)Cc3cnc(C(C)O)n3C)c3cc(Cl)ccc3n2)nc1C` (stereo not shown), the pIC50 in assay [1] (setting [2]) was 4.85; at CREBBP (1084-1701) (setting [3]), 5.06; in the assay on 647V cells, 5.03; on EP300 (P300(1048-1664)), 5.02.
With `CCc1ncc(CN(C)C(=O)c2cc(-c3ccc(NCCN(C)C)c(C)n3)nc3ccc(Cl)cc23)n1C` [579], the pIC50 was 6.87 in assay [1] (setting [2]), 7.63 on CREBBP (1084-1701) (setting [3]) and 8.05 on EP300 (P300(1048-1664)).
As for `CCc1ncc(CN(C)C(=O)c2cc(-c3ccc(NCCN(C)C)c(C)n3)nc3ccc(Cl)cc23)n1C` [578], the pIC50 in assay [1] (setting [2]) was 6.98; on CREBBP (1084-1701) (setting [3]), 7.38; with 647V cells it was 7.36; on EP300 (P300(1048-1664)) it was 7.81.
In the same order, the values of `CCn1ncc(CN(C)C(=O)c2cc(-c3ccc(NCC(C)NC)c(C)n3)nc3ccc(Cl)cc23)c1C` (stereo not shown) are 6.99, 7.71, 7.18 and 8.10.

Usually pIC50 stands for the IC50 on a negative log10 scale, so that one unit is a factor of ten.
